We go through one molecule from PMC3640089.

No constants are given. Whether binding was seen depends on the method and setting. In cells and extracts the contact can be indirect. Binding calls can cover weak binding; strength is not graded here.

In this experiment the target is dynein intermediate chain (Xenopus (endogenous in Xenopus oocytes)). The experiment is described as follows: co-IP; Xenopus oocyte lysates (10 mM HEPES pH 7.4, 100 mM potassium acetate, 10 mM magnesium acetate, 5 mM EGTA, 0.1% NP-40, RNasin) precleared, incubated overnight with mouse anti-DIC (74.1) or mouse IgG prebound to Protein A-Sepharose; bound proteins blotted; control oocytes and oocytes expressing p150^Glued CC1.

B1: Staufen (protein, UniProt Q6GM35 1-708)
chain: MSQAPKSPAAPLPKIQILNKNQHSPLPQPLSIPSTASPLPSENAGRPLQNSALPSPSVTSSGPTAVSSNMANPKEKTPMCLVNELARFNKIQPVYKLLSEQGPAHSKVIPLGRWQDYSLLERVGEERPRQMFTVQLTLGDQYWEAEGTSIKKAQHAAAAKALEGTKYPKPTVRPVRDSITPTVELNALCMKLGRKPIYKPLDPYTGIRSAYNYNMRGGGYPPRYFYPFPVAPILYQVELSVGGQQFHGKGRTRQAAKHDAAARALKSLHHEPLPDKPALNGKAADEENLNKSEISQVFEIALKRNMSVNFEVTKETGPPHMKSFLTKVIVGEFLGEGEGKSKKISKKNAAIAVLEELRKLPPLPTVEKMRPKIKKKTKSIVKLPTSPEYGQGMNPISRLAQIQQAKKGKEPEYILITERGLPRRREFVMQVKVGNHAAEGSGTNKKVAKRNAAENMLEILGFKVPPPPPKPALKTEEKLPVKKPGDGRKVTFYEPGSGEDGANHNKDDEFRMPYHSHQQLPAGILPMVPEVAQAVGVNQGLHTKEFNRVAPNPAKATVTAMIARELLYAGISPTADTILKNNNAAGHVLRGPFTRPSEQLNYLSRVQGLEVEYKDFPKNNKNEFVSLINCSSQPPLISHGIGKDVESCHDMAALNILKLLSELDQQNPEMPRTGNGPMSVCVKPEMESDPLLKPANSNTLGQTLDSTA
For the molecule B1, the binding result is recorded as “binds”.
